This note sets out measurements from article PMC5514116.

Chains of the proteins cited; added tags and fusions are not shown. Residues count along the entry.
UniProt Q99K41, residues 22-1017: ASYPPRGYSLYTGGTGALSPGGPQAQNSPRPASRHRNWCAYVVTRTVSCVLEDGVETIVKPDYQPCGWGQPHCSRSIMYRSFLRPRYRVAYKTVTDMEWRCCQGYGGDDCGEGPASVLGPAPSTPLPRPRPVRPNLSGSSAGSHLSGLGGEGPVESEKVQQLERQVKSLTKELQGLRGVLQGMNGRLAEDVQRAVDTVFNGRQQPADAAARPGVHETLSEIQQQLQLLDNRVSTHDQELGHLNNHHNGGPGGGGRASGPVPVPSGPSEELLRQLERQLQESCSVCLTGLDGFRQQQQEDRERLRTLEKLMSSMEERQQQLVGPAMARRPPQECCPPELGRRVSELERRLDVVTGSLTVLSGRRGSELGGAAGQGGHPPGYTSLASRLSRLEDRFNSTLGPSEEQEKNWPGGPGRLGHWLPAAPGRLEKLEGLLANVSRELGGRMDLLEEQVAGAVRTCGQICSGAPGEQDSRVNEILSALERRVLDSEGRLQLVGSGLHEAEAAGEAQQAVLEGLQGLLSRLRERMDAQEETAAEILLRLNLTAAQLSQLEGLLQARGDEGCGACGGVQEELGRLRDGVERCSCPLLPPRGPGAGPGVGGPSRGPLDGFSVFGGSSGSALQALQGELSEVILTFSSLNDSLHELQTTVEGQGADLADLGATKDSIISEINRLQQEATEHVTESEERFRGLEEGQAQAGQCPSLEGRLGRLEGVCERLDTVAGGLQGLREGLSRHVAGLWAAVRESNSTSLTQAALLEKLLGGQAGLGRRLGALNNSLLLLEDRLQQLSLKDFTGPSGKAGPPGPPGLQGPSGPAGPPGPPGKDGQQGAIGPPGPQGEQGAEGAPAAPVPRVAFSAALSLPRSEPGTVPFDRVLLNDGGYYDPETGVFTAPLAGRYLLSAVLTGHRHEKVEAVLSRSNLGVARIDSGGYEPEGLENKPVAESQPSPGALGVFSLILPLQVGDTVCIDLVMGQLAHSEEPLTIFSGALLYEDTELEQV
UniProt Q9WVJ9, residues 28-443: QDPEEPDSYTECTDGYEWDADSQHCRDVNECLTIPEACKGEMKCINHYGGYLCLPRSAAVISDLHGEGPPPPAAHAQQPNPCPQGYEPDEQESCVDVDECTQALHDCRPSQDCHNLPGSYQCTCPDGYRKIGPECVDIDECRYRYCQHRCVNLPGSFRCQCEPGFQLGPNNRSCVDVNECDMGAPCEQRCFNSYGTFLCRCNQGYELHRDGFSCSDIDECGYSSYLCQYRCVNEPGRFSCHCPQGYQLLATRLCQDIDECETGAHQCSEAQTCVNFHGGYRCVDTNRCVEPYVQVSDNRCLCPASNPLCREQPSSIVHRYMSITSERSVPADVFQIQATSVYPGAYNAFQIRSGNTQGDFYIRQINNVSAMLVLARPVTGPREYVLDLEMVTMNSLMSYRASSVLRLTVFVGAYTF
UniProt Q9Y6C2, residues 22-1016: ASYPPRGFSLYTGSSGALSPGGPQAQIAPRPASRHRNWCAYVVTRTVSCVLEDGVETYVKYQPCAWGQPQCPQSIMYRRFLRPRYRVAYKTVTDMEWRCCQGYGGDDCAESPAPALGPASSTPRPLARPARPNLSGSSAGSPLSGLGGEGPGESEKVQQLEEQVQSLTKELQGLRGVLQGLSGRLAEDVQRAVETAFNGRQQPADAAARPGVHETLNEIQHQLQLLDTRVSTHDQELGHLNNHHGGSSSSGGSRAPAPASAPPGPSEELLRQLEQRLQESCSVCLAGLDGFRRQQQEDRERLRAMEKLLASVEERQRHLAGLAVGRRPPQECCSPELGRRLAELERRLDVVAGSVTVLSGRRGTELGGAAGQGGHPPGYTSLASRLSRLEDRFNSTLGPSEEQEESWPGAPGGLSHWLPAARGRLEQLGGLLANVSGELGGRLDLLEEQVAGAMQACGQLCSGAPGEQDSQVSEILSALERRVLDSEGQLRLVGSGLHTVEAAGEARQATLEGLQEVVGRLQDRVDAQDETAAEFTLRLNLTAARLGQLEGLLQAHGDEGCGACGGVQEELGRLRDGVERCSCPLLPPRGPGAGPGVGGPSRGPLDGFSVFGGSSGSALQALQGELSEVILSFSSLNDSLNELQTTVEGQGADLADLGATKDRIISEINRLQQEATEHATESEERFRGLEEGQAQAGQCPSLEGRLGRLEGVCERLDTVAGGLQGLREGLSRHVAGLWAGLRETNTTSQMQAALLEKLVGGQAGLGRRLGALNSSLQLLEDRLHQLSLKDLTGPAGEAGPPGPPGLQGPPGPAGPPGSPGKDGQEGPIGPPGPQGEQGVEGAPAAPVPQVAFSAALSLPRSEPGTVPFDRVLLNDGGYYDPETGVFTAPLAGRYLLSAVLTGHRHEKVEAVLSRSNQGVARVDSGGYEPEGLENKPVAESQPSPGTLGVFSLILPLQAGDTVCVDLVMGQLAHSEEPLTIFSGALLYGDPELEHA
UniProt Q8K482, residues 34-1074: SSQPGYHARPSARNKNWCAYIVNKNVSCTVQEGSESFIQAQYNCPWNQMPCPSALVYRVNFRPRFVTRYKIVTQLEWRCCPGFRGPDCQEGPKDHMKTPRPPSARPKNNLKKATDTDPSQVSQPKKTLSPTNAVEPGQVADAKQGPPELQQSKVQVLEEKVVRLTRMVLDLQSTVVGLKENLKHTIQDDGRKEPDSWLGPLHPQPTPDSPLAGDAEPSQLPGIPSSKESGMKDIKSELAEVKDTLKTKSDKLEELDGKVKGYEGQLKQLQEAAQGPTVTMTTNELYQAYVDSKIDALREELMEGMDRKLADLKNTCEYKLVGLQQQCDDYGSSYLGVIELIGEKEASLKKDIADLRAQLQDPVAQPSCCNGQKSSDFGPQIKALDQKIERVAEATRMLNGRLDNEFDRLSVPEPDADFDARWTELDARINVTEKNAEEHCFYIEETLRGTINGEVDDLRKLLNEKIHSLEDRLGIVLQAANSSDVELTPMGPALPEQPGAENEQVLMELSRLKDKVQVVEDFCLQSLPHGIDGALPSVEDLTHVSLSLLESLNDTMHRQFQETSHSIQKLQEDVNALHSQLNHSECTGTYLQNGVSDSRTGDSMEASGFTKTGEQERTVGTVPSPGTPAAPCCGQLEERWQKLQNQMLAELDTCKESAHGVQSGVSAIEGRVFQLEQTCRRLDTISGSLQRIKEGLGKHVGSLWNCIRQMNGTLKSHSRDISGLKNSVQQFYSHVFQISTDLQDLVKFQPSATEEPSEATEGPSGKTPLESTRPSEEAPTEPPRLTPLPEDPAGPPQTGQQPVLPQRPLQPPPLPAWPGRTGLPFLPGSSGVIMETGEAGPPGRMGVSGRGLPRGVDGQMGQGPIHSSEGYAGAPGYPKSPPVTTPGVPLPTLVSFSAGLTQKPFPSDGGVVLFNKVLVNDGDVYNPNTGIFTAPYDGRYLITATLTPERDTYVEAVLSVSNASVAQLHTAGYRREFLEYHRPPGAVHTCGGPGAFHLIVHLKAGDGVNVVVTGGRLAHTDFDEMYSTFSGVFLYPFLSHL

The target of experiment [1] is FLAG-EMILIN-1 (murine EMILIN-1 with a FLAG tag at the N-terminus) (murine) (UniProt Q99K41). The experiment can be described thus: co-IP; FLAG-EMILIN-1 conditioned medium immunoprecipitated with anti-FLAG M2 affinity gel (2 hours, 4 °C), washed, incubated overnight at 4 °C with MC3T3-E1 conditioned serum free medium; western blot with a fibulin-4 antibody. Background: Immunoblotting shows a protein as a band on a membrane.

The target of experiment [2] is recombinant murine C-terminally 2xStrepII tagged full length fibulin-4 (murine) (UniProt Q9WVJ9). The experiment can be described thus: pull-down; recombinant 2xStrep-tagged fibulin-4 mixed with conditioned media of transfected EBNA cells, 2 hours at 4 °C, precipitated with Strep-Tactin Sepharose; washed with 50 mM Tris-HCl pH 7.5, 150 mM NaCl, 2 mM EDTA, 1% Triton X-100; western blot; only the target purified.

Experiment [3] deals with purified recombinant human EMILIN-1 (human) (UniProt Q9Y6C2). The experiment can be described thus: ELISA; human EMILIN-1 coated (100 nM/well, PBS 1 M NaCl, 4 °C overnight); fibulin-4 serially diluted 1:2 in 2% milk, TBS, 2 h; detected with HRP-conjugated anti-Strep-tag antibody; both purified. (An ELISA detects its analyte on a solid surface through an enzyme-linked reagent.)

These are yes or no findings as the source states them, for the method shown. For some of these results: Binding seen in cells or lysates may run through a third protein. Some results given as binding are weak or reduced against the parent protein; the word gives no strength.

Take “endogenous fibulin-4 secreted in the medium of MC3T3-E1 cells (from UniProt Q9WVJ9 28-443)”: in experiment [1], the binding result is given as “binds”.

With “FLAG-EMILIN-1 (murine EMILIN-1 with a FLAG tag at the N-terminus) (from UniProt Q99K41 22-1017)”, the binding entry in experiment [2] is listed as “binds”.

“FLAG-EMILIN-2 (murine EMILIN-2 with a FLAG tag at the N-terminus) (from UniProt Q8K482 34-1074)”: the binding entry in experiment [2] is “no binding”.

“recombinant murine C-terminally 2xStrepII tagged full length fibulin-4 (from UniProt Q9WVJ9 28-443)”: in experiment [3], the binding entry is reported as “binds”.
